These results are taken from the odorant receptor screen of Mainland et al. (2015).

Common to all, as to test: odorant receptor activation (CRE luciferase / Renilla) (fold of no-odor wells); higher = more activation
What all share (conditions): 100 µM

Test [1] relates to OR14L1 clone 1029.
For test [2], the system named is OR1A1 P285S clone 1531.
Test [3] has as its system OR1A1 R128H clone 1528.
Test [4] concerns OR1A1 V233M clone 1287.
In test [5] the test system is OR1A1 V233M clone 1530.
Test [6] relates to OR1A1 clone 1529.
Test [7] relates to OR1A2 clone 1158.
Test [8] deals with OR1C1 clone 1044.
Test [9] deals with OR1D2 clone 1376.
The test system of test [10] is OR1D5 clone 1289.

“And” between values parts separate entries of the source, which are not always exact repeats. Identical values can stand only once. Some of the results follow. Single wells; the ratio to wells without odorant was worked out here, and repeats agree poorly.

For `CS` [methanethiol], the odorant receptor activation in [1] was 1.14; in test [2], 1.07; in test [3], 0.943; in test [4] it was 1.69 and 0.835; in test [5], 0.895; in test [6], 0.803. Also, the odorant receptor activation came to 0.972 in test [7], 1.05 in [8], 1.26 in [9] and 0.812 in test [10].

For the compound `CCC(C)=O` [2-butanone], the odorant receptor activation is 2.99 in [1]; 1.04 in test [2]; 0.946 in [3]; 1.31 in [5]; 1.11 in test [6]; 0.858 in test [7]. For the same compound, the odorant receptor activation in test [8] is 3.2; in test [9], 0.679; in test [10] it was 1.05.

In the case of `CCOc1cc(C=O)ccc1O` [ethyl vanillin], the odorant receptor activation in [1] was 1.37 and 1.4; in test [2], 1.22 and 2.85 and 1.19; in test [3], 0.997 and 2.12 and 1.26; in test [4], 2.28 and 2.37 and 1.07; in test [5] it was 1.63 and 2.61 and 1.16; in test [6], 0.99 and 2.77 and 1.29. Also, the odorant receptor activation in test [7] is 1.94 and 1.27; in test [8], 1.29 and 1.03; in [9] it was 1.14 and 1.12; in [10] it was 1.26 and 1.17.

As to `CCCCOC(C)=O` [butyl acetate], the odorant receptor activation was 0.772 in test [1]; 1.16 in test [2]; 0.958 in [3]; 2.57 and 0.922 in test [4]; 1.02 in test [5]; 0.995 in [6]. Besides, the odorant receptor activation in test [7] worked out at 0.941; in test [8] it was 1.1; in [9] it was 0.157; in test [10] it was 0.712.
